Source: article doi:10.1101/2022.08.02.502465
No constants are given. Whether binding was seen depends on the method and setting.

Amino acid sequences for entries named in this document (tags omitted).
UniProt P0A988, whole entry: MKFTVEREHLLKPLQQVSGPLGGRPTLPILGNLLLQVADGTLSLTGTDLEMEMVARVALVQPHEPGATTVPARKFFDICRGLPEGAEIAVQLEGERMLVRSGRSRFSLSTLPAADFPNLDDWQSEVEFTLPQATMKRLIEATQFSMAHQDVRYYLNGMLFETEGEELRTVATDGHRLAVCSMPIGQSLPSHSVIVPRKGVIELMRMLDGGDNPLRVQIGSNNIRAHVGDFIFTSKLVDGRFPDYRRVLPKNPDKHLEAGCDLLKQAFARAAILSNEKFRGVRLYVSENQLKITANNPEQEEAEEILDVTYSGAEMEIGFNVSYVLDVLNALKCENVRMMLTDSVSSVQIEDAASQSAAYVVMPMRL
UniProt P00582, whole entry: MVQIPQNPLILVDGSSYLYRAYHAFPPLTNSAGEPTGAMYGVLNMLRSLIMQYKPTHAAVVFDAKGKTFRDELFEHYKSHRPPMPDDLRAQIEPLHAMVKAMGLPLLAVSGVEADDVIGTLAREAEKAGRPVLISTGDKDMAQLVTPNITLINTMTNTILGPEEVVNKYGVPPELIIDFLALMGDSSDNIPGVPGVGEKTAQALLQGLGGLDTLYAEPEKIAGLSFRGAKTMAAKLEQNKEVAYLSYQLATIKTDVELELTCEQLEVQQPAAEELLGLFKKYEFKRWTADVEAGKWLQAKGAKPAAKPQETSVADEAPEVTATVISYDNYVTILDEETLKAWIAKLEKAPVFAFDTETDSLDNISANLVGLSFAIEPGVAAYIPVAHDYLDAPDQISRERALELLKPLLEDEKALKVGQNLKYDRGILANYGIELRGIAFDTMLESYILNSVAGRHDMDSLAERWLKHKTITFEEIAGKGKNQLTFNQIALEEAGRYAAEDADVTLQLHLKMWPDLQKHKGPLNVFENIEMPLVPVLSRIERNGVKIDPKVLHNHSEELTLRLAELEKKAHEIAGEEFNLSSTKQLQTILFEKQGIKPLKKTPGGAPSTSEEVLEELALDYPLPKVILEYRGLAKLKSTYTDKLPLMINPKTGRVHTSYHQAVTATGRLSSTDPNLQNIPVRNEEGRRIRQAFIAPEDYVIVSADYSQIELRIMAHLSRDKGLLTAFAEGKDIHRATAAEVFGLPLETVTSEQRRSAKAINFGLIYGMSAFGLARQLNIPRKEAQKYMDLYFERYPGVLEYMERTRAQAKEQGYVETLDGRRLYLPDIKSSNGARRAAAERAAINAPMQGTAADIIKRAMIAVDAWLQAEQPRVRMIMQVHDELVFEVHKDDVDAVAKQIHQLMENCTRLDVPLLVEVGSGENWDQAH

Target: DNA sliding clamp β (E. coli) (UniProt P0A988)
Experiment: SEC

binding: no binding (tested: 10 μM)
Substance: DNA polymerase I (from UniProt P00582 1-928) (enzyme)
